These are yes or no findings as the source states them, for the method shown.
Target: apotransferrin (UniProt P02787)
Test: ligand affinity purification of integrin adhesion complexes, western blot; podocytes spread on dishes coated with ECM ligand or apotransferrin (10 μg/ml); cross-linker DTBP 6 mM for 3 min; cell bodies removed with Triton X-100 extraction buffer and water wash; complexes left bound to the substrate resolved by SDS-PAGE and blotted; only the target purified

Amino acid sequences for entries named in this document (tags omitted). Residues count along the entry.
UniProt P02787, residues 20-698: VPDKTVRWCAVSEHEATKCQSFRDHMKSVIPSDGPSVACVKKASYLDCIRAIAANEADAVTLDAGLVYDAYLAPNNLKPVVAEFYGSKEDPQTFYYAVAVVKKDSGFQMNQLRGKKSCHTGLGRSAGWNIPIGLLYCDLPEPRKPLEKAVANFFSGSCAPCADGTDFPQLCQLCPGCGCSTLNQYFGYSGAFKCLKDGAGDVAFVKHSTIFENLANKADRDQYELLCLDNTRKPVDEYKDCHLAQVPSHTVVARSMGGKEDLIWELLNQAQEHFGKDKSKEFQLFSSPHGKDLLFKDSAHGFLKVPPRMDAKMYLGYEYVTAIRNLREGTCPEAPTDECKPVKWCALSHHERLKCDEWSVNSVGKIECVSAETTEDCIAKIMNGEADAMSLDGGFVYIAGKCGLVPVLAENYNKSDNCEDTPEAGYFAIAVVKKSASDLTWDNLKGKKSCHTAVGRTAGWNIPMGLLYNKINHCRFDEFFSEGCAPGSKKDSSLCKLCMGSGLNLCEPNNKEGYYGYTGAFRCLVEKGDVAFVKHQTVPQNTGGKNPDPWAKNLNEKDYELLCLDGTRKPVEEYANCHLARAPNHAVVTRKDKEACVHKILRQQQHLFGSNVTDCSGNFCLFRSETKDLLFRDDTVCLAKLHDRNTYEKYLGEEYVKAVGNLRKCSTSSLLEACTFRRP

binding: no binding
Substance: vinculin (from UniProt P18206-2)

— paper PMC7327512
